PubChem BioAssay AID1259405 | NCATS, 2018
Assay: 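Mouse-designed siRNAs used to find CHO productivity engineering targets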 (primary screen). Cells: Chinese hamster CHO-K1 ovary cells with stable secreted eGFP expression. Knock-down reagent: single siRNA against mouse genes, 0.8 pmol siRNA per well (2 µl of 400 nM stock). Timing: 3 days. Read-out: 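Per-well intracellular GFP measured by laser scanning cytometry, plus viability from ATP luminescence, each relative to plate median of non-targeting control wells, in %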. Reading the numbers: GFP, % of control: higher = more GFP per well, higher productivity; viability (ATP), % of control: higher = more viable cells (more ATP). Call rule: 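Called active when intracellular GFP, relative to negative control, is at or above 120%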.
Here is a random part of about 50,000 reagents. In the full data, about 4,000 (8%) got an active call. 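Mouse siRNA library applied to hamster cells; one well for each siRNA.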 Entries without a mark were called inactive. Reagents against one gene are numbered here.

The first 4 entries as a preview:
no.	Gene	reagent	GFP, % of control	viability (ATP), % of control
1	Zpbp (zona pellucida binding protein)	1	78.4	79.8
2	Zpbp (zona pellucida binding protein)	2	89.3	66.6
3	Zpbp (zona pellucida binding protein)	3	73.4	85.3
4	Tor1aip2 (torsin A interacting protein 2)	1	71.2	84.2

The listing, from the start:
no.	Gene	reagent	GFP, % of control	viability (ATP), % of control
1	Zpbp (zona pellucida binding protein)	1	78.4	79.8
2	Zpbp (zona pellucida binding protein)	2	89.3	66.6
3	Zpbp (zona pellucida binding protein)	3	73.4	85.3
4	Tor1aip2 (torsin A interacting protein 2)	1	71.2	84.2
5	Tor1aip2 (torsin A interacting protein 2)	2	72.4	46
6	Tor1aip2 (torsin A interacting protein 2)	3	54	42.4
7	Tor1aip2 (torsin A interacting protein 2)	4	69.6	80.8
8	Tor1aip2 (torsin A interacting protein 2)	5	52.4	53.9
9	Tor1aip2 (torsin A interacting protein 2)	6	142 (active)	62.6
10	Tnrc18 (trinucleotide repeat containing 18)	1	64.7	114
11	Tnrc18 (trinucleotide repeat containing 18)	2	69.8	97.1
12	Tnrc18 (trinucleotide repeat containing 18)	3	56	43.9
13	Hspbap1 (Hspb associated protein 1)	1	83.6	113
14	Hspbap1 (Hspb associated protein 1)	2	75.5	83.6
15	Hspbap1 (Hspb associated protein 1)	3	106	96.7
16	Nup50 (nucleoporin 50)	1	151 (active)	122
17	Nup50 (nucleoporin 50)	2	67.4	51.8
18	Nup50 (nucleoporin 50)	3	107	103
19	Slc22a8	1	96.3	48.6
20	Slc22a8	2	49.5	79.5
21	Slc22a8	3	54.6	67
22	Rnd2 (Rho family GTPase 2)	1	149 (active)	136
23	Rnd2 (Rho family GTPase 2)	2	122 (active)	127
24	Rnd2 (Rho family GTPase 2)	3	77.2	65.5
25	Tmod1 (tropomodulin 1)	1	51.5	65
26	Tmod1 (tropomodulin 1)	2	69	64
27	Tmod1 (tropomodulin 1)	3	75.2	74.8
28	Asxl2 (ASXL transcriptional regulator 2)	1	114	57
29	Asxl2 (ASXL transcriptional regulator 2)	2	55.1	72.7
30	Asxl2 (ASXL transcriptional regulator 2)	3	90	81.1
31	Mmp28 (matrix metallopeptidase 28 (epilysin))	1	47.2	64.7
32	Mmp28 (matrix metallopeptidase 28 (epilysin))	2	59.7	62.1
33	Mmp28 (matrix metallopeptidase 28 (epilysin))	3	88.8	66.6
34	Atg10 (autophagy related 10)	1	34	43
35	Atg10 (autophagy related 10)	2	71.9	74.8
36	Atg10 (autophagy related 10)	3	75.4	37.5
37	Adcy2 (adenylate cyclase 2)	1	63.5	85.4
38	Adcy2 (adenylate cyclase 2)	2	60.7	83.7
39	Adcy2 (adenylate cyclase 2)	3	78.3	71.3
40	Mgmt (O-6-methylguanine-DNA methyltransferase)	1	83.6	78.1
41	Mgmt (O-6-methylguanine-DNA methyltransferase)	2	96.4	78.3
42	Mgmt (O-6-methylguanine-DNA methyltransferase)	3	31.7	32.2
43	Npr1 (natriuretic peptide receptor 1)	1	65.1	93.3
44	Npr1 (natriuretic peptide receptor 1)	2	85.1	83.5
45	Npr1 (natriuretic peptide receptor 1)	3	80.6	65.3
46	Lipk (lipase family member K)	1	44.2	94
47	Lipk (lipase family member K)	2	89.9	85.3
48	Lipk (lipase family member K)	3	49	74.9
49	Plxna1 (plexin A1)	1	81.3	84.5
50	Plxna1 (plexin A1)	2	105	81.4
51	Plxna1 (plexin A1)	3	78.7	81.6
52	Crct1 (cysteine-rich C-terminal 1)	1	75.9	56.5
53	Crct1 (cysteine-rich C-terminal 1)	2	109	85.6
54	Crct1 (cysteine-rich C-terminal 1)	3	69.9	72.9
55	Hrc (histidine rich calcium binding protein)	1	108	92.1
56	Hrc (histidine rich calcium binding protein)	2	88.9	60.1
57	Stt3b	1	89.2	76.3
58	Stt3b	2	30.9	55.2
59	Stt3b	3	77.2	82.5
